PubChem BioAssay AID686938 – Drosophila RNAi Screening Center – 2013

Purpose: 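Looking for CRAC channel components and the factors controlling them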 (primary screen)
Cells: Drosophila S2R+ cells
Reagents: long dsRNA against Drosophila genes, about 0.25 µg dsRNA per well, roughly 10,000 cells
Timing: 5 days of knock-down before the calcium assay
Conditions: thapsigargin (SERCA pump blocker) to empty calcium stores; entry signal taken 4 min after adding it
Read-out: 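Per-well fluo-4 fluorescence in two replicates, unnormalised, measured in resting cells and 4 min after store depletion by the SERCA blocker thapsigargin; ratio of the two present in few wells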
Reading the numbers: calcium entry signal: higher = stronger calcium signal after store depletion; resting calcium signal: higher = higher resting calcium signal
Active means: 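Called when the plate z-score of the entry-to-rest ratio, mean of duplicates, falls below −3; wells with low overall dye signal (Fmax z below −2) or more than five off-targets excluded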
Calls: active = strongly reduced calcium entry; inactive = no strong reduction
The screen tested about 23,000 reagents; below is a random part of those that have a named target and a result. In the full data, 75 (0.33%) were called active. 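Raw plate signals without normalisation; calls rest on plate z-scores that were not deposited; ratio present for only 364 wells.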 A plus sign joins genes that one reagent is predicted to hit. The record does not give: the dose of the treatment.

| gene knocked down | PubChem SID | calcium entry signal, replicate 1 (fluorescence units) | calcium entry signal, replicate 2 (fluorescence units) | resting calcium signal, replicate 1 (fluorescence units) | resting calcium signal, replicate 2 (fluorescence units) | Call |
| --- | --- | --- | --- | --- | --- | --- |
| CG31370 | SID104201194 | 3.42e7 | 3.52e7 | 2.05e7 | 1.50e7 | inactive |
| Urm1 | SID104202298 | 4.18e7 | 3.55e7 | 2.07e7 | 1.48e7 | inactive |
| CG14439 | SID104197723 | 3.04e7 | 4.10e7 | 1.57e7 | 1.97e7 | inactive |
| CG42755 (retired record) | SID104188897 | 3.25e7 | 5.96e7 | 1.65e7 | 2.58e7 | inactive |
| CG42755 (retired record) | SID104188898 | 3.85e7 | 5.37e7 | 2.01e7 | 2.36e7 | inactive |
| Atx-1 | SID104198157 | 2.84e7 | 4.04e7 | 1.52e7 | 1.78e7 | inactive |
| CG13742 + CNT1 | SID104186205 | 3.16e7 | 3.72e7 | 1.44e7 | 1.70e7 | inactive |
| CG34454 | SID104187656 | 3.22e7 | 3.55e7 | 1.53e7 | 1.56e7 | inactive |
| bnb | SID104200106 | 4.95e7 | 5.09e7 | 2.22e7 | 2.20e7 | inactive |
| Gprk1 | SID104200524 | 2.88e7 | 4.18e7 | 1.35e7 | 1.84e7 | inactive |
| Gprk1 | SID104200708 | 3.86e7 | 2.65e7 | 1.54e7 | 1.34e7 | inactive |
| KrT95D | SID104196517 | 2.14e7 | 2.20e7 | 1.00e7 | 1.10e7 | inactive |
| Sec23 | SID104192179 | 2.72e7 | 6.11e7 | 1.39e7 | 2.69e7 | inactive |
| Asciz | SID104188213 | 2.60e7 | 2.65e7 | 1.58e7 | 1.33e7 | inactive |
| Taf7 | SID104195237 | 3.52e7 | 2.38e7 | 1.74e7 | 1.27e7 | inactive |
| CG13332 | SID104186159 | 3.68e7 | 3.95e7 | 1.86e7 | 1.87e7 | inactive |
| CG8960 | SID104188404 | 4.11e7 | 3.97e7 | 2.09e7 | 1.99e7 | inactive |
| Pdcd4 | SID104199152 | 2.15e7 | 1.43e7 | 1.15e7 | 7.78e6 | inactive |
| VGlut | SID104180525 | 3.75e7 | 4.93e7 | 1.65e7 | 2.46e7 | inactive |
| VGlut | SID104201473 | 3.50e7 | 3.48e7 | 2.04e7 | 1.62e7 | inactive |
| Set2 | SID104199557 | 4.26e7 | 4.04e7 | 1.83e7 | 1.76e7 | inactive |
| CG11475 | SID104183905 | 2.91e7 | – | 1.48e7 | – | inactive |
| 5-HT7 | SID104192427 | 4.50e7 | 4.48e7 | 1.92e7 | 2.00e7 | inactive |
| CG33543 | SID104180176 | 2.49e7 | 2.20e7 | 1.24e7 | 1.01e7 | inactive |
| CG33543 | SID104180177 | 2.19e7 | 2.21e7 | 1.10e7 | 1.07e7 | inactive |

In a second layout: results already given.
CG42755 (retired record) [SID104188897] | calcium entry signal, replicate 1 (fluorescence units) = 3.25e7; calcium entry signal, replicate 2 (fluorescence units) = 5.96e7; resting calcium signal, replicate 1 (fluorescence units) = 1.65e7; resting calcium signal, replicate 2 (fluorescence units) = 2.58e7; Call = inactive
CG42755 (retired record) [SID104188898] | calcium entry signal, replicate 1 (fluorescence units) = 3.85e7; calcium entry signal, replicate 2 (fluorescence units) = 5.37e7; resting calcium signal, replicate 1 (fluorescence units) = 2.01e7; resting calcium signal, replicate 2 (fluorescence units) = 2.36e7; Call = inactive
